61 compounds from PubChem BioAssay AID493014 (National Center for Advancing Translational Sciences (NCATS), 2011) can be followed below.

This assay can be described thus: qHTS Assay to Find Inhibitors of Chronic Active B-Cell Receptor Signaling. As to conditions: ABC-DLBCL IkBa-CBG/CBR reporter, luminescence ratio (green luciferase fused to IkBa over red control in TMD8 lymphoma cells), 4 h. A digest of the protocol: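 TMD8 human ABC-DLBCL cells with doxycycline-inducible IκBα–green luciferase fusion and unfused red luciferase, in 0.5% FBS medium; compounds up to 46 uM, 4 h at 37C. Green/red luminescence ratio, filter-overlap corrected, fitted to concentration-response curves.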
In general terms: In qHTS, concentration-response curves come from the screen itself.

Setting [1] is: measured here: CBR red luminescence, cell number.
[2] abbreviates: measured here: IkBa-CBG green luminescence.

This is one part of the list. Further columns of the screen follow, without active or inactive calls. Most of these compounds were active or inconclusive in the main read-out, so they are no random draw. The note in brackets gives the kind of curve behind each potency; many fits are weak.

Turning to `COc1ccc(CNC(=O)C2CCN(C(=O)c3ccc(-c4ccccc4)cc3)CC2)cc1`, the AC50 (in general, the midpoint of the concentration-response curve, whichever way the signal moves) under setting [1] was 35.5 µM [falling, single point].
Still for that read-out and setting: as for `Cc1cccc(C(=O)Nc2ccccc2SCC2CSc3nc4ccccc4c(=O)n32)c1` (stereo not given), the figure is 2.59 µM [falling, full curve, poor fit].
As to `Cn1cc(/C=C2\SC(=O)N(c3ccc(O)cc3)C2=O)c2ccccc21`, the AC50 is 2.82 µM [falling, partial curve] under setting [1] and 31.6 µM [rising, single point] under setting [2].
On to `O=C(NCc1ccccn1)c1ccc(N2CCCC2)c([N+](=O)[O-])c1`, for which the half-maximal activity concentration (AC50) under setting [1] is 11.2 µM [rising, partial curve].
Turning to `COc1ccc(CNC(=O)c2c(Nc3ccccc3C)sc(C(=O)c3ccccc3)c2N)cc1`, the half-maximal activity concentration (AC50) is, setting by setting: under setting [1], 14.1 µM [falling, partial curve]; under setting [2], 22.4 µM [falling, single point].
As to `O=C(CCNS(=O)(=O)c1ccc(Cl)cc1)Nc1ccncc1`, the concentration at half-maximal activity (AC50) under setting [1] was 35.5 µM [falling, single point].
With `Cc1ccc(CN2C(=O)CCC2C(=O)NC2CCCC2)cc1` (stereo not given), the AC50 under setting [1] is 25.9 µM [rising, single point].
Take `COc1ccc(-c2coc3cc(O[C@@H]4O[C@H](CO)[C@@H](O)[C@H](O)[C@H]4O)c(OC)cc3c2=O)cc1`: the AC50 under setting [1] is 16.4 µM [rising, single point].
`COc1ccc(N2CCN(C(=S)NC(=O)c3cccs3)CC2)c([N+](=O)[O-])c1`: under setting [1], the AC50 is 17.8 µM [rising, single point].
Same read-out and setting: in the case of `Cn1c(SCc2ccc(Br)cc2)nnc1-c1cccs1` it was 3.16 µM [rising, partial curve, poor fit].
On to `COCCn1c(=O)[nH]c(=O)c2cc(C(=O)c3cc(Cl)ccc3O)cnc21`, for which, under setting [1], the AC50 was 11.2 µM [falling, partial curve, poor fit].
On to `C/C(N)=C(/C#N)C(=O)CSc1nnc(COc2ccccc2Cl)o1`, for which the half-maximal activity concentration (AC50) under setting [1] is 23.1 µM [rising, single point].
Consider `Fc1ccc(NC(=S)N2CCCC2)cc1Cl`, for which the AC50 under setting [1] was 11.6 µM [rising, partial curve, poor fit].
In the case of `Cc1oc2c(CN3CCCC(C)C3)c(O)ccc2c(=O)c1-c1ccccc1` (stereo not given), under setting [1], the concentration at half-maximal activity (AC50) was 3.55 µM [falling, single point].
Consider `CC(=Nc1ccccc1O)c1sc2ccccc2c1O`, for which, under setting [1], the AC50 was 25.1 µM [falling, single point].
In the case of `C/C(CC(=O)NCc1ccccc1)=N\NC(=O)c1cnccn1`, the concentration at half-maximal activity (AC50) under setting [1] is 11.6 µM [falling, partial curve].
For the compound `Cc1ccc(-c2csc(NC(=O)c3cccc(N4C(=O)CCC4=O)c3)n2)o1`, the AC50 under setting [1] was 5.8 µM [falling, full curve].
Same read-out and setting: in the case of `O=c1[nH]c(NCCO)nc2c1C1(CCCCC1)Cc1ccccc1-2` it was 29.1 µM [falling, single point].
On to `CCOC(=O)N1CCN(C(=O)c2cc(COc3cccc(C(F)(F)F)c3)on2)CC1`, for which the half-maximal activity concentration (AC50) under setting [1] was 35.5 µM [falling, single point].
As for `Cc1nnc(NC(=O)/C=C/c2ccco2)s1`, the AC50 under setting [1] is 29.1 µM [falling, single point].
Regarding `NC1=NC(c2ccccc2)N=C(Nc2ccccc2)N1` (stereo not given), under setting [1], the AC50 is 1.26 µM [falling, full curve, poor fit].
With `Cc1nn(C)c(C)c1NC(=O)CSc1nc(C2CC2)nc2c1cnn2-c1ccccc1`, under setting [1], the half-maximal activity concentration (AC50) is 6.31 µM [falling, partial curve, poor fit].
On the same count and under the same terms, in the case of `CCOC(=O)c1nnc(-c2ccc(C)cc2)nc1Oc1ccccc1Cl` it was 16.4 µM [falling, partial curve].
Consider `COc1ccccc1CNC(=O)C(=O)NCC1CCCO1` (stereo not given), for which the AC50 under setting [1] is 18.4 µM [falling, partial curve].
As to `O=C(O)c1ccc(S(=O)(=O)N2CCCC2)cc1`, the AC50 under setting [1] was 35.5 µM [falling, single point].
For the compound `CCOC(=O)C1C(=O)OC(C)(C)C1C(C)C(=O)c1ccccc1` (stereo not given), the AC50 under setting [1] was 20.6 µM [rising, single point].
`Cc1ccc(NC(=O)c2ccc3c(=O)n4c(nc3c2)CCCCC4)nc1`: under setting [1], the concentration at half-maximal activity (AC50) is 18.4 µM [falling, single point].
Regarding `COc1cc(OC)c2c(-c3cccc(-c4ccc(CO)cc4)c3)cc(=O)oc2c1`, the AC50 by setting is: under setting [1], 2.06 µM [rising, partial curve]; under setting [2], 1.84 µM [falling, partial curve, poor fit].
As to `Cc1cccc(Nc2nnc(SCC(=O)Nc3cccnc3Cl)s2)c1`, the concentration at half-maximal activity (AC50) under setting [1] was 6.51 µM [rising, single point].
As to `Fc1ccccc1COc1cccc(/C=N/n2cnnc2)c1`, under setting [1], the AC50 is 8.91 µM [rising, partial curve, poor fit].
For `Cc1sc(NC(=S)NC(=O)c2ccco2)c(C(N)=O)c1C`, the AC50 under setting [1] is 0.708 µM [rising, full curve, poor fit].
The same measure, in the same setting: in the case of `C#CCOCCOCCOCCNc1nc(N2CCN(C(=O)CCCCCCCCCCNC(=O)[C@H](CCCCN)n3cc(CCCC(=O)O)nn3)CC2)nc(N2CCN(C(=O)CCCCCCCCCCNC(=O)[C@H](CCCN=C(N)N)n3cc(C[C@@H](C)CC)nn3)CC2)n1` it was 29.1 µM [rising, single point]; in that of `COc1ccc(CC(NC(C)=O)C(=O)N2CCN(C(=O)Nc3ccc(Cl)cc3)CC2)cc1OC` (stereo not given), 1.78 µM [rising, partial curve, poor fit]; in that of `N#Cc1c(NC(=O)CSc2nnc(-c3ccccc3O)n2-c2ccccc2)sc2c1CCCC2`, 0.411 µM [rising, partial curve, poor fit].
The same measure, in the same setting: as for `Fc1cccc(-c2cc3nc4c(c(NCc5ccco5)n3n2)CCCC4)c1`, the figure is 1.26 µM [falling, full curve, poor fit].
For `CCOC(=O)C1=C(COC(=O)/C=C/c2cc(OC)c(OC)c(OC)c2)NC(=O)NC1C` (stereo not given), the half-maximal activity concentration (AC50) under setting [1] is 12.6 µM [rising, partial curve].
Turning to `Cc1oc2ccc(OCc3ccccc3Cl)cc2c1C(=O)O`, under setting [1], the AC50 was 0.562 µM [rising, full curve, poor fit].
As to `Cc1cccc2sc(NC(=O)[C@H](C)N3C(=O)C4CC=CCC4C3=O)nc12` (stereo not given in full), the AC50 under setting [1] was 3.98 µM [falling, single point].
On the same count and under the same terms, as for `O=C(c1c(Cl)nc2sccn12)N(C(=O)c1c(Cl)nc2sccn12)c1ccc(Cl)cn1`, the figure is 1.84 µM [rising, partial curve].
On to `Cc1cc(Cl)n2c(nc3ccccc32)c1C#N`, for which, under setting [2], the concentration at half-maximal activity (AC50) was 2 µM [falling, partial curve, poor fit].
As to `Cn1nnc2cc(C(=O)Nc3ccccc3F)ccc21`, the half-maximal activity concentration (AC50) under setting [1] was 7.94 µM [falling, partial curve].
For the compound `CC(C(=O)N1CCc2ccccc21)N1CCN(c2ccccn2)CC1` (stereo not given), under setting [1], the AC50 was 0.82 µM [rising, full curve, poor fit].
The same measure, in the same setting: as for `COc1ccccc1NS(=O)(=O)c1cc(NC(=O)COc2ccccc2)ccc1N1CCOCC1`, the figure is 18.4 µM [falling, partial curve, poor fit]; as for `O=[N+]([O-])c1ccc(/C=N/N=C/c2ccc([N+](=O)[O-])o2)o1`, 0.794 µM [rising, partial curve, poor fit]; as for `N=c1oc2ccccc2cc1C(=O)Nc1ccc(F)cc1`, 12.6 µM [falling, partial curve, poor fit].
`COc1ccccc1CNC(=O)CS(=O)Cc1nc(-c2ccc(OC)c(OC)c2)oc1C` (stereo not given): under setting [1], the AC50 was 6.31 µM [rising, partial curve, poor fit].
As to `O=C1C(Cl)=C(N2CCOCC2)C(=O)N1c1cccc(C(F)(F)F)c1`, the AC50 under setting [1] was 22.4 µM [falling, partial curve, poor fit].
Take `O=C(Nc1ccc(Cl)c(Cl)c1)Nc1ccccc1C(=O)O`: the AC50 under setting [1] is 1.58 µM [falling, full curve].
Consider `Fc1cccc(CNc2ncnc3ccc(-c4cccnc4)cc23)c1`, for which the AC50 under setting [1] is 29.1 µM [rising, single point].
Consider `O=C(CN1C(=O)c2ccccc2S1(=O)=O)NCc1ccccc1Cl`, for which the half-maximal activity concentration (AC50) under setting [1] is 13 µM [rising, partial curve, poor fit].
For the compound `CCN(CC)C(=O)c1ccc(S(=O)(=O)Cc2ccc(C)cc2)c([N+](=O)[O-])c1`, under setting [1], the half-maximal activity concentration (AC50) is 6.31 µM [falling, full curve].
For the compound `CC1CCCN(CCCNC(=O)c2ccc3c(c2)N(Cc2ccc(F)cc2)C(=O)c2ccccc2S3=O)C1` (stereo not given), the AC50 under setting [1] is 12.6 µM [falling, partial curve, poor fit].
Turning to `CN(Cc1ccc(F)cc1)C(=O)c1cccc(OC2CCN(C3CCCC3)CC2)c1`, the half-maximal activity concentration (AC50) under setting [1] is 35.5 µM [falling, single point].
Turning to `CCOC(=O)c1cnc2c(OC)cccc2c1Nc1ccc2c(c1)OCCO2`, the concentration at half-maximal activity (AC50) under setting [1] is 32.6 µM [rising, single point].
Consider `CC(=O)c1ccc(-c2ccc(-c3cc(=O)oc4c(C(C)C)ccc(C)c34)cc2)cc1`, for which the AC50 under setting [1] is 16.4 µM [rising, partial curve, poor fit].
As to `Oc1cccc(C(Nc2nccs2)c2ccc3cccnc3c2O)c1` (stereo not given), the AC50 is, setting by setting: under setting [1], 15.8 µM [falling, single point]; under setting [2], 25.1 µM [rising, partial curve, poor fit].
Regarding `Cc1cccc(C)c1OCC(=O)NCc1nnc(SCC(=O)NC2CCCCC2C)n1C` (stereo not given), the AC50 under setting [1] was 6.51 µM [rising, single point].
Same read-out and setting: as for `COc1ccccc1N(CC(=O)Nc1cccnc1)S(=O)(=O)c1ccccc1`, the figure is 0.316 µM [falling, full curve, poor fit]; as for `O=C(NC1CCCC1)C1C2C=CC3(CN(Cc4cccs4)C(=O)C13)O2` (stereo not given), 0.231 µM [rising, full curve, poor fit]; as for `COc1ccc(Cc2nnc(N/N=C/c3ccccc3O)[nH]c2=O)cc1OC`, 7.31 µM [falling, partial curve].
Regarding `Cc1c(O)ccc(C(=O)COc2ccccc2F)c1O`, the AC50 under setting [1] is 7.08 µM [rising, partial curve, poor fit].
